Binding signal data for 54 sequences are collected here from PMC7819943, “Rice protein-binding microarrays: a tool to detect cis-acting elements near promoter regions in rice”.

By UniProt entry, the sequences of proteins in these tests, tags left out.
UniProt Q0JBA9, entry or part of it: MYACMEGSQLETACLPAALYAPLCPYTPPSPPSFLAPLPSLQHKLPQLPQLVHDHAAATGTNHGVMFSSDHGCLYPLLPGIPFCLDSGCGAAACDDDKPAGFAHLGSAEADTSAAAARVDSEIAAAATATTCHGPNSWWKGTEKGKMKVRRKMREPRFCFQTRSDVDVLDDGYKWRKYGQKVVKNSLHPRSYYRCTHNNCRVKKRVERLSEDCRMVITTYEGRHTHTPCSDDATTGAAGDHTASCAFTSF

The other results are listed elsewhere or left out.

The target of this test is OsWRKY34 (Oryza sativa, UniProt Q0JBA9 1-250). The experiment in a line: protein-binding microarray (RPBM); PBS, 2% BSA, 51.3 ng/ul salmon testes DNA, 50 uM zinc acetate, 200 nM TF, 25 C, 1 h; high values mean tight binding. As to conditions: protein: recombinant; tags: N-terminal polyhistidine and DsRed monomer fusion (pET32a); label: CyDye5-dUTP incorporated in the synthesized complementary strand; 3' TTTTT single-stranded linker to array surface; dsDNA, one strand shown. In short, it runs like this:
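Transcription factors, each fused N-terminally to a polyhistidine tag and DsRed, were expressed in E. coli BL21-CodonPlus and purified on Ni–NTA. A custom Agilent array was made double-stranded by primer extension with Cy5-dUTP and blocked with 2% BSA. It was incubated with 200 nM protein in PBS, 2% BSA, salmon testes DNA and 50 µM zinc acetate at 25 °C for 1 h, then washed. The binding signal is per-feature fluorescence intensity (arbitrary units) read on an Axon 4000B scanner.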
In the case of “GTTGTATCAATATGGCCCTGGTTAGATTCTAACTTTTTTTCGGAGTCACCTAGTGCAG”, the binding signal is 9360 fluorescence intensity (a.u.). The same measure for “GTTTGTTCGAGTTCAACGATTTGCCATCGACATTATCTCTCGGAGTCACCTAGTGCAG”: 10100 fluorescence intensity (a.u.); for “GTTTAATATTTATAATTCGTGTCCCGATGTGACACGGCTTCGGAGTCACCTAGTGCAG”: 9030 fluorescence intensity (a.u.). The same measure for “ATTTTATCACCCTGCTTAGAGTTTCGCCCGGAGCCATGAACGGAGTCACCTAGTGCAG”: 10700 fluorescence intensity (a.u.); for “GGTTTTTTGGCTTTGTACGGATCGATCTTGACTTGACTCGCGGAGTCACCTAGTGCAG”: 9660 fluorescence intensity (a.u.); for “GGGGAGTGAGGTGAAAGAAGTTGTCGATTGACTTGTGGGGCGGAGTCACCTAGTGCAG”: 8210 fluorescence intensity (a.u.). As for “CCCCGTCCTCTGCTTCTCTCTCGTGTGCTCTGCTTCTTTCCGGAGTCACCTAGTGCAG”, the binding signal is 15400 fluorescence intensity (a.u.). Take “CGCATATAAACGTAATGCAACCACACCCACTACACTTATTCGGAGTCACCTAGTGCAG”: the binding signal was 8550 fluorescence intensity (a.u.). Regarding “TTTTCTAGCTTTTTTTAAAATAAATGGTGGTGTTTTTCTCCGGAGTCACCTAGTGCAG”, the binding signal was 8420 fluorescence intensity (a.u.). The same measure for “TTGAACTGTGCTTGTGTTTGCTCGATATTCGATATGTTTACGGAGTCACCTAGTGCAG”: 9310 fluorescence intensity (a.u.). Turning to “ACCCATCAACGGCACTAGATTCCTTGTCGCGCTGCCATCGCGGAGTCACCTAGTGCAG”, the binding signal was 9580 fluorescence intensity (a.u.).

Consider “ATCTCAATGAGTTGGTCGTTTGCTGCTTCTCTATAGTGAACGGAGTCACCTAGTGCAG”, for which the binding signal was 9140 fluorescence intensity (a.u.). The same measure for “AGCTTTTTATCACTTGGTCAGTGGTTTTTTCTTTTCCATTCGGAGTCACCTAGTGCAG”: 12400 fluorescence intensity (a.u.); for “CAAACGTTGGAAAAAAGTCAACGGCGTCATATATTTTAATCGGAGTCACCTAGTGCAG”: 15800 fluorescence intensity (a.u.); for “CAACTCCCATACGTAACGACATTTTAAATTAATTTGCCATCGGAGTCACCTAGTGCAG”: 8830 fluorescence intensity (a.u.).

As for “CGCTGTATGCTCTTGCTCTTAATATCTTGCGTGCTGGCTTCGGAGTCACCTAGTGCAG”, the binding signal was 9860 fluorescence intensity (a.u.). For “TCTTCACGCGCATACTTTTCAAACTGCTAAACGGTGCGTTCGGAGTCACCTAGTGCAG” the value was 8080 fluorescence intensity (a.u.); for “TGGTTCTTATCCATTCCATCAGTTGACTGTCAATCTTTCACGGAGTCACCTAGTGCAG”, 9460 fluorescence intensity (a.u.). Regarding “GCCAGCCCGTCACACCGAGTCCAACGCCTTTCAACGCGCGCGGAGTCACCTAGTGCAG”, the binding signal is 10800 fluorescence intensity (a.u.). As for “ACTTTCCGTTATTCTCATTTCAACCCTCGCATTTTTTACACGGAGTCACCTAGTGCAG”, the binding signal was 11200 fluorescence intensity (a.u.).

Turning to “TATGTTTCTGTGGTAAGGCCCATGAAGTTTTCGGTGAGAGCGGAGTCACCTAGTGCAG”, the binding signal was 8660 fluorescence intensity (a.u.). For the sequence “CGTTTTGTGCTTCTACCTGTTAATCTATCTGATGGTTTTCCGGAGTCACCTAGTGCAG”, the binding signal is 12700 fluorescence intensity (a.u.).

For “GCAGTTTCAGTGTGTGTTTGGTTGCAAGTTGTTGCATCTGCGGAGTCACCTAGTGCAG”, the binding signal was 8410 fluorescence intensity (a.u.). Regarding “GGATATTGAGATGCCTAGTTACCTGGGACTGCTTACACTACGGAGTCACCTAGTGCAG”, the binding signal was 8820 fluorescence intensity (a.u.). For “GACCTACATCCAATCCAACACCACACCACACCATTTTTTTCGGAGTCACCTAGTGCAG” the value was 13600 fluorescence intensity (a.u.); for “GCCTACGACCCGCGCTCCGACCCTGACCCGCCCTGCCTCGCGGAGTCACCTAGTGCAG”, 8750 fluorescence intensity (a.u.); for “GACGGTCGTAAAATTCGTGGTGTTTCTGTTCATCTTAGCTCGGAGTCACCTAGTGCAG”, 8110 fluorescence intensity (a.u.).

As to “TCATCTGCACGAGGGCGTGGTTGGTTCTTGCTTGTGTGAGCGGAGTCACCTAGTGCAG”, the binding signal is 9020 fluorescence intensity (a.u.).

With “CCACCGCCGCCGCCGCCGCCGCGCCATCGCCGCCTCCACCCGGAGTCACCTAGTGCAG”, the binding signal was 9910 fluorescence intensity (a.u.). Consider “ATTAATATCTACCCTATTTTCATAACGTCTCGTATCTTATCGGAGTCACCTAGTGCAG”, for which the binding signal is 8200 fluorescence intensity (a.u.).

In the case of “CCACCGCCGCTCGCGGGAGAGACTCTGGTTTTTTTTGGGGCGGAGTCACCTAGTGCAG”, the binding signal is 8840 fluorescence intensity (a.u.). Regarding “CCAGATCGCTCACAGATCCTCCCAACTCGCTCACCTTCTTCGGAGTCACCTAGTGCAG”, the binding signal was 8800 fluorescence intensity (a.u.). For “CCCGACACCGCCATGGCCGCCGCCGTCCGCCGCCTCCTGCCGGAGTCACCTAGTGCAG” the value was 12600 fluorescence intensity (a.u.). For “CCCAAATATTGTACTTGTGTGATTGTAATGAATATATAGCCGGAGTCACCTAGTGCAG” the value was 8430 fluorescence intensity (a.u.); for “GCCGATGTCTCCTCTTGCTACCAAGCTAGACCCACACGTTCGGAGTCACCTAGTGCAG”, 8270 fluorescence intensity (a.u.).

In the case of “GCATTACTAGGGTATTGACATTGTCAGTTTTCTCTAAACCCGGAGTCACCTAGTGCAG”, the binding signal was 8150 fluorescence intensity (a.u.). For “GCTCTTGGTCTCGAGTCTCGACAGCGACCCGGTTGGTCAACGGAGTCACCTAGTGCAG” the value was 9410 fluorescence intensity (a.u.). “TCTCACTTTTACTCGCATGTTTCGCTATGCACATGTTTTTCGGAGTCACCTAGTGCAG”: the binding signal was 8570 fluorescence intensity (a.u.). For the sequence “AAAAAAATTATGGATGGGGTTATTAGTAACAGTCATTTTGCGGAGTCACCTAGTGCAG”, the binding signal is 8040 fluorescence intensity (a.u.). For “GAGTTTTGTAAGTAGAGTGCTCTCTCACCTTTTCTTCACTCGGAGTCACCTAGTGCAG”, the binding signal was 8480 fluorescence intensity (a.u.). Consider “TCCGATGTGACACGCTAAAATTTTTCTTCTCGCGGGCCTTCGGAGTCACCTAGTGCAG”, for which the binding signal is 9250 fluorescence intensity (a.u.). For “CGTCACGTTTTCTATCAACTCCTTCCATACAACACCGATGCGGAGTCACCTAGTGCAG” the value was 8420 fluorescence intensity (a.u.); for “TTCGTTAAATTATTTTTCTTTTTCGTTTTTTTTTTTTGTTCGGAGTCACCTAGTGCAG”, 8930 fluorescence intensity (a.u.); for “ACCGTCCTCGCGACCTCGCCTCTTATCATCCCGCGAATAACGGAGTCACCTAGTGCAG”, 10900 fluorescence intensity (a.u.). For “TGTTGTGGATGTGGATAAGACCCCAGTTATGCTAAACTGGCGGAGTCACCTAGTGCAG”, the binding signal is 8340 fluorescence intensity (a.u.). For “ACTTACTTACTTCCTCGCTCTCGCTGTCCCTCGCTCACTCCGGAGTCACCTAGTGCAG” the value was 12900 fluorescence intensity (a.u.); for “CCCGCGACCAGAAACCGTACCCGCCTTCTCCCGCACCGGGCGGAGTCACCTAGTGCAG”, 8240 fluorescence intensity (a.u.). For “CCGCCTGCGCCGATCCCCATCCATCCATCCACCCAGCGACCGGAGTCACCTAGTGCAG” the value was 9470 fluorescence intensity (a.u.); for “GCCCTCTCTCTCTCTCTCTCTCTCTCTCTCTCTCTCTCTCCGGAGTCACCTAGTGCAG”, 11900 fluorescence intensity (a.u.); for “GGTTTTATTTTCCACATTTAATGCCCCATGCATGTGTGTCCGGAGTCACCTAGTGCAG”, 8560 fluorescence intensity (a.u.). For “GGCGGATTCATCCCCGGACAGGAGTAGGGTATTACTTCTTCGGAGTCACCTAGTGCAG” the value was 8020 fluorescence intensity (a.u.); for “TCCTCACATGAGAAAGCCAGATATTACCAAGGCCAAGCACCGGAGTCACCTAGTGCAG”, 8120 fluorescence intensity (a.u.); for “CTGGCCGCCATCTCCGCCAATCTCGCTGAATCGGACGCCACGGAGTCACCTAGTGCAG”, 8460 fluorescence intensity (a.u.). Consider “CTTGTGTCCGCGTCGCTCCGCCTCCGCGAGCCGAAGCAGGCGGAGTCACCTAGTGCAG”, for which the binding signal was 8810 fluorescence intensity (a.u.).
